Results as given in paper PMC10411469.
Results are given in words; binding and its absence hold for the method and conditions named. In cells and extracts the contact can be indirect. Some entries that bind do so weakly or less than the wild type.

By UniProt entry, the sequences of proteins in these tests, tags left out.
UniProt P40763: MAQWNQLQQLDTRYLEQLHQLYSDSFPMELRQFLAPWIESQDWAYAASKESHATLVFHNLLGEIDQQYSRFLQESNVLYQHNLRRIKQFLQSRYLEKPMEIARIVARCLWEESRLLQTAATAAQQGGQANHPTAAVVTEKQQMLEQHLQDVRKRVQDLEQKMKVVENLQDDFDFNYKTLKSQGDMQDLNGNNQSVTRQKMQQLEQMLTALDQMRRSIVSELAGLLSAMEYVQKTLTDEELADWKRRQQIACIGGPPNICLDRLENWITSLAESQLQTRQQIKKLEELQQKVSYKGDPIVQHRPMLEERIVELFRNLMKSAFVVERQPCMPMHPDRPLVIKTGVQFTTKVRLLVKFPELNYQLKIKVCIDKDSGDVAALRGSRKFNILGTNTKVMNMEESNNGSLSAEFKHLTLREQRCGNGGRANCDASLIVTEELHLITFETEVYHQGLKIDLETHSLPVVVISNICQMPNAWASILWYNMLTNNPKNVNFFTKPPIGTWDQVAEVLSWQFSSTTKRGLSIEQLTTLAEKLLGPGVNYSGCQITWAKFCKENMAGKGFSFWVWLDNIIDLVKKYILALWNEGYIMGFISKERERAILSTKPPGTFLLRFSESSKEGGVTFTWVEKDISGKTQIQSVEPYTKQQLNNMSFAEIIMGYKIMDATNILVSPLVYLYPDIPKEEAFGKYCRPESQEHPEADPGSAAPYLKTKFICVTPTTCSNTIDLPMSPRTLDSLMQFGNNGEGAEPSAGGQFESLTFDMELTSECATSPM

T1: exogenously expressed FIBP (FGF1 intracellular binding protein) (UniProt O43427)
T1 sequence: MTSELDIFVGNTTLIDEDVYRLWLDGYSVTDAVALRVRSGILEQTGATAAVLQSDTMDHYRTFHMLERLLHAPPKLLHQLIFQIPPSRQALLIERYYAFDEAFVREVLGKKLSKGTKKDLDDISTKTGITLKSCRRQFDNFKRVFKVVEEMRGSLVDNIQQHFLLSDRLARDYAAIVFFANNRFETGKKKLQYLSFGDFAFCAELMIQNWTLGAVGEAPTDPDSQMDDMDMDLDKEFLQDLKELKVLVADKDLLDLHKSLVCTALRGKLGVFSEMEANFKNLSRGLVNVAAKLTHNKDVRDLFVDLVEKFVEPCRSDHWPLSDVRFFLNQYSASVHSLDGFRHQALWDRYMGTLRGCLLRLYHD


Columns and labels:
[1] = biological target: T1, exogenously expressed FIBP (FGF1 intracellular binding protein); test: co-IP; H1299 cell lysates in NETN buffer (20 mM Tris-HCl pH 8.0, 100 mM NaCl, 1 mM EDTA, 0.5% Nonidet P-40); S-protein agarose or primary antibodies plus protein A/G agarose; western blot
[2] = biological target: exogenously expressed STAT3 (signal transducer and activator of transcription 3) (UniProt P40763); test: as above
[3] = biological target: recombinant GST-tagged STAT3 (UniProt P40763); test: pull-down; purified GST-STAT3 (or GST) immobilised on Glutathione-Sepharose 4B beads, incubated with lysates of cells transfected with SFB-FIBP overnight at 4°C; immunoblot; only the target purified
[4] = biological target: endogenous STAT3 (human (endogenous in H1299)) (UniProt P40763); test: co-IP; H1299 cell lysates in NETN buffer (20 mM Tris-HCl pH 8.0, 100 mM NaCl, 1 mM EDTA, 0.5% Nonidet P-40); S-protein agarose or primary antibodies plus protein A/G agarose; western blot

Molecule | binding [1] | binding [2] | further results
endogenous STAT3 (from UniProt P40763 1-770) | binds | – | –
SFB-FIBP (protein, UniProt O43427 1-364) MTSELDIFVGNTTLIDEDVYRLWLDGYSVTDAVALRVRSGILEQTGATAAVLQSDTMDHYRTFHMLERLLHAPPKLLHQLIFQIPPSRQALLIERYYAFDEAFVREVLGKKLSKGTKKDLDDISTKTGITLKSCRRQFDNFKRVFKVVEEMRGSLVDNIQQHFLLSDRLARDYAAIVFFANNRFETGKKKLQYLSFGDFAFCAELMIQNWTLGAVGEAPTDPDSQMDDMDMDLDKEFLQDLKELKVLVADKDLLDLHKSLVCTALRGKLGVFSEMEANFKNLSRGLVNVAAKLTHNKDVRDLFVDLVEKFVEPCRSDHWPLSDVRFFLNQYSASVHSLDGFRHQALWDRYMGTLRGCLLRLYHD | – | – | binding [3]: binds
endogenous FIBP (protein, UniProt O43427 1-364) MTSELDIFVGNTTLIDEDVYRLWLDGYSVTDAVALRVRSGILEQTGATAAVLQSDTMDHYRTFHMLERLLHAPPKLLHQLIFQIPPSRQALLIERYYAFDEAFVREVLGKKLSKGTKKDLDDISTKTGITLKSCRRQFDNFKRVFKVVEEMRGSLVDNIQQHFLLSDRLARDYAAIVFFANNRFETGKKKLQYLSFGDFAFCAELMIQNWTLGAVGEAPTDPDSQMDDMDMDLDKEFLQDLKELKVLVADKDLLDLHKSLVCTALRGKLGVFSEMEANFKNLSRGLVNVAAKLTHNKDVRDLFVDLVEKFVEPCRSDHWPLSDVRFFLNQYSASVHSLDGFRHQALWDRYMGTLRGCLLRLYHD | – | binds | binding [4]: binds

Second part, led by results:

binding [1] | binding [2] | Molecule | further results
binds | – | exogenously expressed STAT3 (signal transducer and activator of transcription 3) (from UniProt P40763 1-770) | –
– | binds | exogenously expressed FIBP (FGF1 intracellular binding protein) (protein, UniProt O43427 1-364) MTSELDIFVGNTTLIDEDVYRLWLDGYSVTDAVALRVRSGILEQTGATAAVLQSDTMDHYRTFHMLERLLHAPPKLLHQLIFQIPPSRQALLIERYYAFDEAFVREVLGKKLSKGTKKDLDDISTKTGITLKSCRRQFDNFKRVFKVVEEMRGSLVDNIQQHFLLSDRLARDYAAIVFFANNRFETGKKKLQYLSFGDFAFCAELMIQNWTLGAVGEAPTDPDSQMDDMDMDLDKEFLQDLKELKVLVADKDLLDLHKSLVCTALRGKLGVFSEMEANFKNLSRGLVNVAAKLTHNKDVRDLFVDLVEKFVEPCRSDHWPLSDVRFFLNQYSASVHSLDGFRHQALWDRYMGTLRGCLLRLYHD | –
